Measured values from publication PMC3799435, “Dissecting the interactions of SERRATE with RNA and DICER-LIKE 1 in Arabidopsis microRNA precursor processing” (Nucleic Acids Research, 2013).
No constants are given. Whether binding was seen depends on the method and setting. Tags and fused reporters may be left off the sequences shown.

Sequences of proteins named here, by UniProt entry; tags and fusion partners are left off.
UniProt Q9SP32: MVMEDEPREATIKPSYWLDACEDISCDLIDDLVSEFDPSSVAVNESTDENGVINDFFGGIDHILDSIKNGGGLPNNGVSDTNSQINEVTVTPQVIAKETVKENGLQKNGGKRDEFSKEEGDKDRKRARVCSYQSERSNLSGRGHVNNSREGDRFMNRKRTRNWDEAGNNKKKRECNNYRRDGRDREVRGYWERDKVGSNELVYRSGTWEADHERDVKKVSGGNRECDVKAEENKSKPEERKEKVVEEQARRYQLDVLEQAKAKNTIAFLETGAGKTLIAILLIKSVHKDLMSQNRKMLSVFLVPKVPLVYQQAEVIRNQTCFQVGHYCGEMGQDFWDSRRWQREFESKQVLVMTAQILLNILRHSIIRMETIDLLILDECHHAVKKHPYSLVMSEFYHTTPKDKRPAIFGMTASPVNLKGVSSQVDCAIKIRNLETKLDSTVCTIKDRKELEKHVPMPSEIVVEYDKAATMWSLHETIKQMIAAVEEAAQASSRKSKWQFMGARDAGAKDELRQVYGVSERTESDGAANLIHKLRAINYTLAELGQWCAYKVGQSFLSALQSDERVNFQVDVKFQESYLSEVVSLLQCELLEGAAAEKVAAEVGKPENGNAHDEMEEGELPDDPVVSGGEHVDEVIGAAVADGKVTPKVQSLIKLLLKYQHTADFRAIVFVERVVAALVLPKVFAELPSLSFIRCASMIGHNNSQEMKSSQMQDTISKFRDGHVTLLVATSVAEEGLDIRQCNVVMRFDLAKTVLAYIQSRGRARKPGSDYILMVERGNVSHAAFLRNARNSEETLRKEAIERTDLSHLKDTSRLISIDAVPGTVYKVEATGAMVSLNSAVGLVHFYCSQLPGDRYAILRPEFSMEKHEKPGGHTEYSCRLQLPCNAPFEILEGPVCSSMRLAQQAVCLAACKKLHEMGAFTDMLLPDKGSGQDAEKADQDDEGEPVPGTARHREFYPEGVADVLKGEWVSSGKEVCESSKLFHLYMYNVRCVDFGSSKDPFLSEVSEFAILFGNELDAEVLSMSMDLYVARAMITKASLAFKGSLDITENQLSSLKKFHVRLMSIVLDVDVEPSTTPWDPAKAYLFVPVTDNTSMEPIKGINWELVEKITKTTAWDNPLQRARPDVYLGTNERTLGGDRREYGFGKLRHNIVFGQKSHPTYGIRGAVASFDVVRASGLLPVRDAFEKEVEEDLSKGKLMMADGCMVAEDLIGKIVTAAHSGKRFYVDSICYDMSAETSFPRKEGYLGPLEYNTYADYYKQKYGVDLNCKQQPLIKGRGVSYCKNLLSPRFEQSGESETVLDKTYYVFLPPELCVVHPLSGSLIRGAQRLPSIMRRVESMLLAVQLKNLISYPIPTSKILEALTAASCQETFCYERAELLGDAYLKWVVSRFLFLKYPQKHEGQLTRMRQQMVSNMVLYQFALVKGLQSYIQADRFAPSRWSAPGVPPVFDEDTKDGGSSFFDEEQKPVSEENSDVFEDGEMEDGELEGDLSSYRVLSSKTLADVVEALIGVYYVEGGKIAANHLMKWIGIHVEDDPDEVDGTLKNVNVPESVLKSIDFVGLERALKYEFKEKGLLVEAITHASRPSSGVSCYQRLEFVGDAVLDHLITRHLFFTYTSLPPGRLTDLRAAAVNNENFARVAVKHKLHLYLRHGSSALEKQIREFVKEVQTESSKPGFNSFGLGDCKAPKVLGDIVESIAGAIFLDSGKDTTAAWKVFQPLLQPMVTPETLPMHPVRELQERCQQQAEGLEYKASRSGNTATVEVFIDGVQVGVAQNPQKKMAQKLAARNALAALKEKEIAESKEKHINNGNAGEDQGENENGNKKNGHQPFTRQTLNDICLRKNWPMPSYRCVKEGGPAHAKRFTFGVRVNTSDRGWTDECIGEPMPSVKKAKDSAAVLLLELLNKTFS

Legend:
[1] = biological target: DICER-LIKE 1 (DCL1), untagged recombinant (Arabidopsis thaliana) (UniProt Q9SP32); test: SPR; Biacore T100; about 1750 RU of DCL1 immobilised via amine groups on a CM5 chip, no RNA; SE and its mutants injected for 70 s at 20 nM; 20 mM Tris-HCl (pH 7.0), 50 mM NaCl, 2 mM β-ME, 0.005% surfactant P20; both purified
[2] = biological target: DICER-LIKE 1 (DCL1), untagged recombinant (Arabidopsis thaliana) (UniProt Q9SP32); test: SPR; Biacore T100; about 1200 RU of DCL1 (injected at 16 nM) bound beforehand to 60 RU of biotin-labelled forked RNA on an SA chip; SE and its mutants then injected for 70 s at 20 nM; 20 mM Tris-HCl (pH 7.0), 50 mM NaCl, 2 mM β-ME, 0.005% surfactant P20; RU of mutants normalised to the RU of DCL1 bound; both purified

- binding [1]: no binding (tested: 20 nM)
- binding [2]: no binding (tested: 20 nM)
B1: SEΔ497–547, hexahistidine-tagged SERRATE lacking the ZnF domain (protein, UniProt Q9ZVD0)
chain: MADVNLPPSDSVDNRLPEKSTSSSPPPPPPSSSLPQQEQEQDQQQLPLRRERDSRERRDERDIERPPPNRRERDRSPLPPPRRDYKRRPSLSPPPPYRDRRHSPPQRRSPPQKRYRRDDNGYDGRRGSPRGGYGPPDRRFGYDHGGGYDREMGGRPGYGDERPHGRFMGRYQDWEGGRGGYGDASNSGNPQRDGLMSYKQFIQELEDDILPSEAERRYQEYKSEYITTQKRAFFNTHKEEDWLKNKYHPTNLLSVIERRNDLAQKVAKDFLLDLQSGTLDLGPAVTALNKSGRTSEPNSEDEAAGVGKRKRHGMGGAKENELLSAAPKAPSFTSDPKRILTDVEQTQALVRKLDSEKKIEENVLQGSETEKSGREKLHSGSTGPVVIIRGLTSVKGLEGVELLDTLVTYLWRVHGLDYYGKVETNEAKGLRHVRAEGKVSDAKGDENESKFDSHWQERLKGQDPLEVMAAKEKIDAAATEALDPHVRKIRDEKYGWNAPGGQPATQQSGPRDRPIRRKPSMENRLRDDRGGRRERDGRANGNDRNDRSEDQQRGDNDGGNPGEVGYDAFGGQGGVHVPPFLSDINPPPMLMPVPGAGPLGPFVPAPPEVAMQMFRDPSGPNPPFEGSGRGGPAPFLLSPAFRQDPRRLRSYQDLDAPEEEVTVIDYRSL
